Measurements published in article PMC8555152.
These are yes or no findings as the source states them, for the method shown. In cells and extracts the contact can be indirect. Some binding calls cover weakened binding; strength is not graded here.

Sequences of proteins named here, by UniProt entry; tags and fusion partners are left off.
UniProt P10415: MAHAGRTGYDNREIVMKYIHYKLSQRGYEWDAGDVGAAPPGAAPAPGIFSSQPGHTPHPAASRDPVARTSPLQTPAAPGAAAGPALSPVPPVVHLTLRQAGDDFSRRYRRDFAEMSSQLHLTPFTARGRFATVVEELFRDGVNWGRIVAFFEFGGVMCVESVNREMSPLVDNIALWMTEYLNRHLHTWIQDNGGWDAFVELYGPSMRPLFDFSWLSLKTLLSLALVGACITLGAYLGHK
UniProt Q14457: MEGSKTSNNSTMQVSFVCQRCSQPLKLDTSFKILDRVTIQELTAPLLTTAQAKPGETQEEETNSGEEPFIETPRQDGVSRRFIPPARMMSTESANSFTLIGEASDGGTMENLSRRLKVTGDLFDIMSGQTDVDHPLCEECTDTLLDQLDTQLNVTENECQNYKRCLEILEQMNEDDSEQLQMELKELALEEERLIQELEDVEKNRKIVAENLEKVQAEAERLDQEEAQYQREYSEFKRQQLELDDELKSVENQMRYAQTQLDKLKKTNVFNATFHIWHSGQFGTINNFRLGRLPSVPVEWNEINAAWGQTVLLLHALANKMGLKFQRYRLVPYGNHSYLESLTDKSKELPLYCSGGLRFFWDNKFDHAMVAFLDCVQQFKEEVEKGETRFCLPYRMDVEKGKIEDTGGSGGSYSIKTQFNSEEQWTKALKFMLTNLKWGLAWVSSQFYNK

Biological target: BCL2, endogenous (human (endogenous in HEK293T)) (UniProt P10415)
Assay: co-IP

Substance: BECN1-Flag (pcDNA4-BECN1-Flag) (from UniProt Q14457 1-450)
- binding: binds
